According to patent publication US7541374B2, “Malononitrile compounds and use thereof” (Sumitomo Chemical Company, Limited, priority 2004, dated 2009):
Some entries share one result that the patent states for a list of compounds. For at least one compound, name, drawing or mass did not settle the structure.

What was measured:
[1] = system: Culex pipiens pallens; experiment: Test Example 5: larvae in treated water, Culex pipiens pallens; format: in vivo; conditions: active ingredient concentration 3.5 ppm in water; twenty last-instar larvae of Culex pipiens pallens; after one day
Protocol: The formulation obtained according to Formulation Example 5 using the compound of the present invention (1), (2), (3), (4), (5), (6), (7), (8), (9), (10), (11), (12), (13), (14), (15), (16), (17), (18), (19), (20), (21), (22), (23), (25), (27), (28), (29), […], (31), (32), (33), (34), (35), (36), (37), (38), (39), (41), (44), (45), (46), (47) and (48) respectively, was diluted with water so that the active ingredient concentration came to 500 ppm to prepare a pesticidal solution for test.
0.7 ml of above pesticidal solution for test was added to 100 ml of ion exchanged water (active ingredient concentration: 3.5 ppm). Twenty last-instar larvae of Culex pipiens pallens were set free in the solution. After one day, the number of surviving and dead Culex pipiens pallens was examined and the rate of dead pests was calculated.

[2] = system: Nilaparvata lugens; experiment: Test Example 1: spray on rice plants, Nilaparvata lugens larvae; format: in vivo; conditions: 500 ppm, sprayed 20 ml/cup on rice plants; thirty first-instar larvae released; sixth day after release

N#CC(C#N)(CCC(F)(F)F)Cn1ccc([N+](=O)[O-])c1 [compound of the present invention (45), [(3-nitro-1H-pyrole-1-yl)methyl](3,3,3-trifluoropropyl) malononitrile]
rate of dead pests [1]: not less than 95%
number of parasitic Nilaparvata lugens on the rice plants [2]: ≤ 3
